Measured values: patent publication US6160008A, “Pharmaceutical compositions comprising S-alkylisothiouronium derivatives” (priority 1996, dated 2000)
At least one compound was matched to its structure with a doubt left.

Tested on: arterial blood pressure
Test: Influence of single intravenous injection on arterial blood pressure, heart rate and respiratory rate in anesthetized cats (Table 1, FIGS. 1-10)
Format: in vivo
Conditions: 5 mg/kg i.v.
Protocol: Experiments were performed on 52 anesthetized (intraperitoneally with 45 mg/kg of sodium pentobarbital) cats of both genders with body mass of 2.8-4.2 kg. Arterial pressure was measured by a mercury pressure gauge; measurements were also performed by ECG. Simultaneously, the respiratory frequency was registered. The hypertensive effect was determined as percent increase relative to the initial level of systolic arterial pressure (SAP). The duration of observation was 1-3 hours; the heart rate (HR) was calculated on the basis of ECG.

[1] = listed as S-methylisothiuronium dimethylphosphate

What does the source list for `CSC(=N)N` [S-methylisothiouronium dimethylphosphate]?
RR (influence on respiratory rate): increases respiratory rate; Influence on HR [1]: Bradycardia; RR (influence on respiratory rate) [1]: Increases
